Reference: patent publication US20090180995A1, “NOVEL ANTICOAGULANT POLYPEPTIDES AND COMPLEX” (National University of Singapore, priority 2005, published 2009)
These are yes or no findings as the source states them, for the method shown. Some entries that bind do so weakly or less than the wild type.

Legend:
[1] = target: T1, hemextin B (Hemachatus haemachatus (African Ringhals cobra)); test: far UV CD titration of hemextin A with hemextin B
T1 sequence: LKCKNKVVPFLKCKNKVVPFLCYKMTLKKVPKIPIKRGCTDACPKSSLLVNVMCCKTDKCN

[2] = target: T1, hemextin B (Hemachatus haemachatus (African Ringhals cobra)); test: gel filtration, Superdex 30
[3] = target: T1, hemextin B (Hemachatus haemachatus (African Ringhals cobra)); test: GEMMA molecular diameter
[4] = target: T1, hemextin B (Hemachatus haemachatus (African Ringhals cobra)); test: SEC in Tris-HCl with glycerol; dimer peak analysed by ESI-MS and HPLC
[5] = target: T1, hemextin B (Hemachatus haemachatus (African Ringhals cobra)); test: ITC

Measured: binding

B1: hemextin A (protein)
chain: LKCKNKLVPFLSKTCPEGKNLCYKMTMLKMPKIPIKRGCTDACPKSSLLVKVVCCNKDKCN
binds: all assays above
